According to patent US20220356235A1 (STICHTING SANQUIN BLOEDVOORZIENING, published 2022):
These are yes or no findings as the source states them, for the method shown. Some entries that bind do so weakly or less than the wild type.

Legend:
[1] = target: T1, human factor H, full length (human, UniProt P08603 19-1231); experiment: SPR
[2] = target: T2, recombinant human FH fragment CCP 18-20 (human, UniProt P08603 1046-1231); experiment: SPR
T2 construct: domain: CCP 18-20; also called fragment of FH comprised of domain 18-20
T2 sequence (looked up): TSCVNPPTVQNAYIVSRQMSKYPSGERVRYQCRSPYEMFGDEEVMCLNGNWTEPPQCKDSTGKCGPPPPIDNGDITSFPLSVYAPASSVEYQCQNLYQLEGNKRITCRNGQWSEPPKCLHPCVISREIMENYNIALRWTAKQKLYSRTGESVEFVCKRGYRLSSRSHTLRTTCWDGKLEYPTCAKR

[3] = target: T1, human factor H, full length; experiment: ELISA: mAb coated directly on the plate, FH-bt added without competing mAb
[4] = target: T1, human factor H, full length; experiment: ELISA: anti-FH.07 coated directly on the plate, FH-bt added without competing mAb
[5] = target: T2, recombinant human FH fragment CCP 18-20; experiment: SPR, mAb captured on ProtA or ProtG chip, FH CCP 18-20 flowed over; summary plot of KD
[6] = target: T1, human factor H, full length; experiment: SPR, mAb captured on ProtA or ProtG chip, full length FH flowed over; summary plot of KD
[7] = target: T3, recombinant human FH fragment CCP 15-18 (human, UniProt P08603 868-1104); experiment: competition ELISA: mAb captured on RM-19 coated plate, FH-bt mixed with 100-fold excess of unlabelled CCP 15-18
T3 construct: domain: CCP 15-18
T3 sequence (looked up): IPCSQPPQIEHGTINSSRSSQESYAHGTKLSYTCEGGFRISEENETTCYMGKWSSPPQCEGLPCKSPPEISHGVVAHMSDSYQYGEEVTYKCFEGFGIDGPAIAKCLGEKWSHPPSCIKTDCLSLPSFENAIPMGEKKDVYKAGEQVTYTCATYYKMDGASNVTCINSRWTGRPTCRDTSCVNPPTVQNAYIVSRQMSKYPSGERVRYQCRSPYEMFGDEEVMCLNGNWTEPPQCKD
Procedure: (§1) The location of the epitope of anti-FHR-1 mAbs was determined using recombinant human FH fragments composed of multiple CCP domains (15-18, 15-19, 18-20 or 19-20). In short, anti-FHR-1 mAbs were captured on a RM-19 coated microtiterplate to assure optimal binding conformation. Next, biotinylated FH, mixed with a 100-fold higher concentration of the indicated unlabeled recombinant FH-fragments, was incubated on the plate for 1 hour. Binding of biotinylated FH was determined by incubation with 0.01% (v/v) streptavidin conjugated with poly-HRP, in HPE for 30 min. The ELISA was further developed as described above. To determine whether the anti-FHR-1 mAbs competed with anti-FH.07 for the binding of FH, a similar set-up was used. In short, mAbs were directly coated to the plate and binding of biotinylated FH (FH-bt) in the absence or presence of a 10-fold higher concentration of indicated mAbs was assessed by ELISA as described above.

[8] = target: T4, recombinant human FH fragment CCP 15-19 (human, UniProt P08603 868-1165); experiment: competition ELISA: mAb captured on RM-19 coated plate, FH-bt mixed with 100-fold excess of unlabelled CCP 15-19
T4 construct: domain: CCP 15-19
T4 sequence (looked up): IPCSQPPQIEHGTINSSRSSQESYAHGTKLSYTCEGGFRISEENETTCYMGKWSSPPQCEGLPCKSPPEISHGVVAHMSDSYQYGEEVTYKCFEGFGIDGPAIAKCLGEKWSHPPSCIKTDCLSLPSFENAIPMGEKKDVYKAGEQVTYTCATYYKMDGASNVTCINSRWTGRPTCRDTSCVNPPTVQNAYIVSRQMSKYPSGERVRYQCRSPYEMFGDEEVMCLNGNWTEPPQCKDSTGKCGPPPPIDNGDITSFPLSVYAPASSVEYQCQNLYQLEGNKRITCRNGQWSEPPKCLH
Procedure: as §1

[9] = target: T2, recombinant human FH fragment CCP 18-20; experiment: competition ELISA: mAb captured on RM-19 coated plate, FH-bt mixed with 100-fold excess of unlabelled CCP 18-20
Procedure: as §1

[10] = target: T1, human factor H, full length; experiment: competition ELISA: mAb captured on RM-19 coated plate, FH-bt mixed with excess unlabelled full length FH; % of FH-bt binding without competitor
Procedure: as §1

Measured: binding

B1: anti-FH.07 (antibody, V domains shown)
VH: QVQLQQSGPGLVQPSQSLSITCTVSDFSLARYGVHWIRQSPGKGLEWLGVIWSGGTADYNAAFISRLNINKDNSKSQVFFKMNSLQANDTAIYYCARNFGNYAVDYWGQGTS
VL: QIVLSQSPTFLSASPGEKVTVTCRASSSVKYMHWYQQKPGASPKPWIFATSNLASGVPARFSGSGSGTSYSLTISRVEAEDAATYYCQQWSIIPPTFGNGTKLELK
binds: all assays above
